Results: US6653529B2, “Use of the maize X112 mutant ahas 2 gene and imidazolinone herbicides for selection of transgenic monocots, maize, rice and wheat plants resistant to the imidazolinone herbicides” (BASF Aktiengesellschaft, priority 2000, dated 2003)
Some entries share one result that the patent states for a list of compounds.

Tested on: rice plants (transgenic Lines 26 and 29; Nt control)
Experiment: Greenhouse herbicide tests on rice
Format: in vivo
Details: for rate up to which growth of transgenic plants was not affected: post-emergence, fresh weight and visual observation
From the text: We evaluated the response of transgenic rice to PURSUIT® imazethapyr application in the greenhouse. In this experiment, we included 2 transgenic lines and their untransformed counterpart (Nt). The transgenic lines, designated as Line 26 and 29, were T3 progeny derived from previously identified homozygous resistant transgenic plants containing the maize XI12 ahas2 gene driven by its own promoter. All seeds were pre-germinated in water for 2-3 days then grown in a planting mixture consisting of 1:1 soil and MetroMix 360 (The Scotts Company, Marysville, Ohio 43040) in 6-inch pots (2 seeds per pot) in the greenhouse and sprayed with PURSUIT® imazethapyr at 63, 125, or 250 g ai/ha. For post-emergence application, the plants were sprayed 15 days after seeding, at which time most plants had 3 leaves. For pre-emergence treatment, PURSUIT® imazethapyr was sprayed one day after seeding. Each treatment contained 20 plants and, and 3 replicates per treatment. One set of materials was not sprayed and used as control. The plants were grown in the greenhouse and harvested at maturity. The amount of PURSUIT® imazethapyr applied in this study (63, 125, or 250 g ai/ha) was close to 1, 2 or 4× field application rate for imi-resistant corn (refer to Table 3) since PURSUIT® imazethapyr is not currently labeled for use in rice fields. A custom designed belt sprayer was operated as described (Newhouse et al. 1992) for all herbicide applications. Five plants from each treatment were randomly chosen and individually measured for morphological traits. Means and standard deviations were calculated over three replications. Plant heights were measured from the base of the plant to the tip of the flag leaf 93 days after herbicide applications (DAH) and number of tillers per plant were counted 102-103 DAH. Data on number of panicles per plant and yield were collected after plants were harvested.
A total of 9 herbicides, 5 imidazolinones, two rice herbicides and ACCENT® (nicosulfuron) and CLASSIC® (clorimuron-ethyl) were applied in this study. Materials and methods were basically the same as described above, except that instead of 6″ pots, flats with 18 (3″×3″ per cell) cells were used, and 10-12 seeds were planted to one 3″×3″ cell. Ten plants were maintained in one cell in the post-emergence application. Each herbicide was sprayed at 4 different rates, 1, 2, 4, and 6×, as either pre or post-emergence applications with three replications per treatment. The name and amount of herbicide applied in this experiment and information relevant to their commercial applications are listed in Table 3. For simplicity and convenience, the lowest concentration used is referred as 1× rate, 2, 4 and 6× rates can be calculated as multiples of 1×.
To monitor plant response to various herbicides, data on fresh weight was collected. For pre-emergence applications, all plants from one cell were harvested 32 days after spraying (36-day old plants) and weighed. Twenty-nine days after herbicide application, 5 plants (44-day old plants) from each cell in the post-emergence application, were cut and weighed individually. Mean fresh weight for each treatment was calculated over three replications. The remaining 5 plants were grown in the greenhouse to maturity at which time, panicles of 3 plants were collected, and number of filled seeds and number of total kernels were counted to determine percentage of seed set.

| Structure (SMILES) | seed-set, on average (plants treated with the two rice herbicides (and plants without herbicide)) | rate up to which growth of transgenic plants was not affected |
| --- | --- | --- |
| COc1cc(OC)nc(NC(=O)NS(=O)(=O)Nc2ccccc2C(=O)C2CC2)n1 [AC 322,140, cyclosulfamuron] | 80-98% |  |
| CC(C)C1(C)N=C(c2ncccc2C(=O)O)NC1=O (centres unmarked) [ARSENAL ®, imazapyr] |  | up to 4 × |
| CCc1cnc(C2=NC(C)(C(C)C)C(=O)N2)c(C(=O)O)c1 (centres unmarked) [PURSUIT ®, imazethapyr] |  | up to 4 × |
| COCc1cnc(C2=NC(C)(C(C)C)C(=O)N2)c(C(=O)O)c1 (centres unmarked) [RAPTOR ®, imazamox] |  | up to 4 × |
| CC(C)C1(C)N=C(c2nc3ccccc3cc2C(=O)O)NC1=O (centres unmarked) [SCEPTER ®, imazaquin] |  | up to 4 × |
